In patent US6455540B1, “Methods of use of quinolone compounds against anaerobic pathogenic bacteria” (priority 1999, dated 2002):
At least one compound was matched to its structure with a doubt left.

Tests used:
Assay in all cases: Agar dilution MIC
[1] = system: Clostridium clostridioforme; assay type: cell-based; conditions: 11 isolates
[2] = system: Clostridium inocuum; assay type: cell-based, Clostridium innocuum; conditions: 11 isolates
[3] = system: Prevotella buccae-oris group; assay type: cell-based; conditions: 22 isolates
[4] = system: Fusobacterium varium; assay type: cell-based; conditions: 17 isolates
[5] = system: Veillonella spp.; assay type: cell-based; conditions: 24 isolates
[6] = system: Anaerobiospirillum thomasii; assay type: cell-based; conditions: 13 isolates

| SMILES | Minimal Inhibitory Concentration Range [1] | Minimal Inhibitory Concentration Range [2] | Minimal Inhibitory Concentration Range [3] | Minimal Inhibitory Concentration Range [4] | Minimal Inhibitory Concentration Range [5] | Minimal Inhibitory Concentration Range [6] |
| --- | --- | --- | --- | --- | --- | --- |
| CC1(C)S[C@@H]2[C@H](NC(=O)Cc3ccccc3)C(=O)N2[C@H]1C(=O)O [Penicillin G] | 0.5->32 | 0.25->3 | 0.06->32 | 0.03->32 | – | – |
| CCC[C@@H]1C[C@@H](C(=O)N[C@@H]([C@H]2O[C@H](SC)[C@H](O)[C@@H](O)[C@H]2O)[C@H](C)Cl)N(C)C1 [Clindamycin] | – | 0.25->32 | – | – | 0.03->32 | 8->32 |
